# Experimental data taken from PubChem BioAssay AID1508600 (Functional Genomics Laboratory (NCATS/FGL), 2020).
# Screen size: about 53,000 sequences; about 3,700 (7%) were called active.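 The calls were made as follows: active = gene knockdowns whose robust z-score for IL-1 alpha signal is at least 2 or at most -2, so actives lie on both sides; inactive = the rest.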 The list shows a part of the results.
# Assay: Components of the Cytosolic LPS Sensing Pathway: Gene Identification via Genome-wide siRNA Screen;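 also: robust z of the log signal after scaling to non-targeting control siRNA wells of the plate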
# Details: RAW264.7 macrophages, IL-1a HTRF, actives lie on both sides, screened at 100 nM (by protocol), cells primed 5 h with Pam3CSK4 first
# How it was run: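 Knockdown: 100 nM siRNA, 48h, RAW264.7. Stimulation: Pam3CSK4 5 h, then LipidA via TransIT-TKO 24 h. Output: supernatant IL-1a HTRF, negative-control-normalized, log robust z-score; viability by CellTiter-Glo.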
row,Sequence,z-score
1,CCACUAGACUUCAAUGACUTT against Zeb2,inactive: -1.12
2,GGUUUUAGGACACCUGGUUTT against Gys1,active: 2.13
3,GCGGGUUAUUAACAUAUUUTT against Dlg1,inactive: -0.0709
4,GGAUACCCUGCUUCCAAAATT against Hpd,active: 2.23
5,CCUCUCCAACAACCAACUATT against Lrrc47,inactive: -0.27
6,CCUACUGUCUAAGAAUACATT against Olfr1138,inactive: -1.65
7,GGUAUCAACAUCACGAUUCTT against Mrgpra1,inactive: 0.487
8,GGAUUUAUUGACCUCUUAATT against Sp8,active: 2.41
9,GGAGCUGUUGAGUGUUUAUTT against Ngly1,inactive: -0.378
10,GCGUGAGGUCUUGUCAUCATT against Foxn4,inactive: -0.982
11,GGAAUUGCUAUCUUUUGCATT against Stt3a,inactive: 0.137
12,GGAAAACCUGCCUAGGAAATT against Rad21,inactive: -2
13,GGAGUUAAGAAUAACCAAUTT against Epm2aip1,inactive: -0.526
14,GGCCAUCAAGAGUUUCUUUTT against Nr0b1,inactive: 0.876
15,GGCUUACAUUGACAUUAAATT against F5,inactive: 0.123
16,GGAAUGAGUUCCUUUAAAATT against Svs5,inactive: 0.119
17,GCUUCUAGGGAUCCAAUACTT against Ceacam20,inactive: 0.0517
18,GAAGAUCUUGAAGCUUACUTT against Commd4,inactive: -1.92
19,GGAAGUCAGUAAUCCUCUGTT against Ooep,inactive: 0.939
20,GGAUCAAACAAAUCAUCAATT against Plscr4,inactive: -0.895
21,GGCUAUCUCCAAUUUCAACTT against Slc46a2,inactive: 0.927
22,GGAUCCAGAGAUUCAAUUCTT against Vcam1,inactive: 0.881
23,CCACUAAGGUUUGAAGAAGTT against Nes,inactive: 1.21

row,Sequence,z-score
1,UUGGAAGUGGCCAUGUAGGTT against Gm5622,inactive: 1.65
2,GCCUCGAUCUGAUCUAGAGTT against Dbx2,inactive: 0.291
3,GGAGAACCGUAACAACAACTT against Cacna1a,inactive: 0.692
4,CCCAUAAGUAUUAAAGUGGTT against Adipoq,inactive: -0.867
5,GGAACAAAAAGUUUCCCUUTT against Dnaja3,inactive: 0.541
6,CCUGAUUCCAAAUGUGUUUTT against Sgcb,inactive: 0.158
7,GGAAUCCACGUUCUAGAUUTT against Ptp4a2,inactive: -1.06
8,GGAAGAUCAGAGAUGGACATT against Dennd1c,inactive: 0.494
9,GGAAAUACCCUUAUUUGUGTT against Asns,inactive: 0.4
10,GGCAUUUCUAGUUUUGUGGTT against Gpr173,inactive: -1.33
11,GGAGUUUGGGACCCUACUUTT against Foxo4,inactive: -1.01
12,GCACCACUAGAGGAAACGATT against Ccn4,inactive: -0.506
13,GGUCGACCUCAGAGAUCUGTT against Trat1,inactive: 1.38
14,GCGCAAAGAUGGCUAUUGCTT against Adamts3,inactive: 1.42
15,AAUUCUGGACGAGGAGCAUTT against Abcc5,active: 3.22
16,GCGUGUAUUCCACUCAUAATT against Setd5,inactive: -0.776
17,GGAUCACUGCUUACAAACGTT against Icam4,inactive: -0.104
18,GGUAGCUGUGAUAAAGCAUTT against Pcbd1,inactive: -1.81
19,GGCGACCACUUUGUCUACATT against Plekhg3,inactive: 1.1
20,GCAUUCAAACUGCUCACGUTT against Suclg2,inactive: 0.818
21,GGGUUAAUCAUAAAGACUGTT against Svopl,inactive: 1.96
22,CCUGCCAAAAGUUGUGGAGTT against Uqcrc1,inactive: 0.361
23,GGGCAUUAGGGUGGUAGCATT against Gapdhs,inactive: -0.826

# An excerpt of the results above:
row,Sequence,z-score
10,GGCAUUUCUAGUUUUGUGGTT against Gpr173,inactive: -1.33
11,GGAGUUUGGGACCCUACUUTT against Foxo4,inactive: -1.01
12,GCACCACUAGAGGAAACGATT against Ccn4,inactive: -0.506
13,GGUCGACCUCAGAGAUCUGTT against Trat1,inactive: 1.38
14,GCGCAAAGAUGGCUAUUGCTT against Adamts3,inactive: 1.42
15,AAUUCUGGACGAGGAGCAUTT against Abcc5,active: 3.22
16,GCGUGUAUUCCACUCAUAATT against Setd5,inactive: -0.776
17,GGAUCACUGCUUACAAACGTT against Icam4,inactive: -0.104
18,GGUAGCUGUGAUAAAGCAUTT against Pcbd1,inactive: -1.81
19,GGCGACCACUUUGUCUACATT against Plekhg3,inactive: 1.1
20,GCAUUCAAACUGCUCACGUTT against Suclg2,inactive: 0.818
21,GGGUUAAUCAUAAAGACUGTT against Svopl,inactive: 1.96
22,CCUGCCAAAAGUUGUGGAGTT against Uqcrc1,inactive: 0.361
23,GGGCAUUAGGGUGGUAGCATT against Gapdhs,inactive: -0.826

# More entries follow.

row,Sequence,z-score
1,CGACUUCUGUUUAACUUAATT against Wdr26,inactive: 0.047
2,GGUGUUCCUGCUCAUAUGUTT against Ecd,inactive: 0.413
3,GCUACUUUGUCCGACUCUATT against Pigt,inactive: 0.976
4,CCAAAUUGGGUCUAUAAGGTT against Rpl39l,inactive: 0.197
5,GGCAUUUGAGAAUAUUGAATT against Casq1,inactive: -1.28
6,GAUCUGGCUGCUUCUUACCTT against Porcn,inactive: -0.623
7,GGAAAAUACAAGUCCAUUCTT against B4galt5,inactive: -0.198
8,CCAACUCAUUGGAUCUUGCTT against Glmp,inactive: 0.848
9,GCUGUGAUAGUCAAAAAACTT against Cxcl3,inactive: -1.15
10,GGAUCACCGGUUUCCGACUTT against Mgst2,inactive: -0.11
11,CGCGAGGAAGUCGAGGUAUTT against Pax2,inactive: 1.17
12,GGAUAUUUCAGUUGGCGGGTT against Lama2,inactive: -0.158
13,GCGAAUCAUUGAGAACGGCTT against Dnajb8,inactive: 1.1
14,GCAACGUGAUCCCUUCAUUTT against Slc26a7,inactive: 0.0214
15,GGAGGACAACAGCAAAACATT against Atoh1,inactive: -1.01
16,CGUGAUCAGACACUUCACCTT against Olfr71,inactive: 0.246
17,CGGUCAGGGUCCUAAAUAUTT against Txnl1,inactive: -0.869
18,GGACUUAACAGCAACGCAGTT against Ndn,inactive: -1.01
19,GGUGGUGGAGAAGAUAGGATT against Pax8,inactive: -1.05
20,GGUCACUCCAUUGACUCAATT against Leprot,inactive: 0.672
21,GGAAAAGACAUCAGAUGAATT against Mrpl1,inactive: 0.233
22,GCUAUUCUGUAAGGUCCCGTT against Gsto2,inactive: 1.19
23,GGAAUACACUUACCUAGGUTT against Tpd52l2,inactive: -0.897
